Measured data: PubChem BioAssay AID652243 (Drosophila RNAi Screening Center, 2013)

- Test: 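Fly genes required for human androgen receptor driven transcription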 (primary screen)
- System: Drosophila S2R+ cells
- Reagent: long dsRNA against Drosophila genes
- Timing: 72 h (48 h, then 24 h hormone)
- Treatment: synthetic androgen R1881 at 10 nM for 24 h
- Measurement: 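Firefly light from an androgen-responsive reporter and Renilla control light per well, raw and unnormalised, for each of two replicates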
- Direction: firefly reporter light: higher = more light from androgen-responsive reporter; Renilla control light: higher = more constitutive control signal (cell number, transfection)
- Call rule: 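Across duplicate plates, a knock-down whose log firefly/Renilla ratio shifted a set fold down or up from the GFP/LacZ control mean was a hit; the downward cut appears as both 1.5 and 3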
- Calls: active = hit: reporter lowered or raised; inactive = no hit
In all, the deposit lists about 24,000 reagents; below is a random part of those with a known target gene and a result. Of all reagents, 246 (1%) are marked active. 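Plates not normalised; calls are printed but the firefly/Renilla ratio behind them is not deposited; fold cut for lowering reported inconsistently.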 Raw values vary from plate to plate and are shown uncorrected. A plus sign joins genes that one reagent is predicted to hit. Not given: the amount of reagent.

Gene	dsRNA	firefly reporter light, replicate 1	firefly reporter light, replicate 2	Renilla control light, replicate 1	Renilla control light, replicate 2	call
CG15533 (GeneID 43612)	DRSC15069	1.47e5	1.32e5	1.95e6	2.12e6	inactive
CG15533 (GeneID 43612)	DRSC30031	6.58e5	7.07e5	1.43e6	1.40e6	inactive
lab (GeneID 40817)	DRSC12627	81380	94069	1.53e6	1.76e6	inactive
lab (GeneID 40817)	DRSC25048	8.63e5	6.61e5	5.52e5	5.90e5	inactive
Rpn11 (GeneID 33738)	DRSC03422	66809	50014	4.99e5	5.14e5	inactive
Kap-alpha3 (GeneID 41158)	DRSC16976	1.90e5	1.98e5	3.85e6	3.49e6	inactive
Jheh1 (GeneID 251984)	DRSC06529	4.99e5	5.83e5	5.24e5	5.34e5	inactive
Jheh1 (GeneID 251984)	DRSC25526	7.40e5	7.78e5	7.71e5	8.05e5	inactive
Cyp28d1 (GeneID 33749)	DRSC03298	7.94e5	8.13e5	3.01e6	2.98e6	inactive
Cyp28d1 (GeneID 33749)	DRSC21331	7.81e5	7.93e5	2.98e6	2.73e6	inactive
Cyp28d1 (GeneID 33749)	DRSC28292	4.29e5	6.85e5	1.40e6	1.92e6	inactive
CG43355 + sala	DRSC28864	3.07e5	3.73e5	1.02e6	1.04e6	inactive
CG34200 (GeneID 5740389)	DRSC38889	1.07e6	6.79e5	1.88e6	1.73e6	inactive
VhaM9.7-a (GeneID 38521)	DRSC08289	1.34e5	1.92e5	3.10e6	3.34e6	inactive
VhaM9.7-a (GeneID 38521)	DRSC28340	2.53e5	4.12e5	1.29e6	2.14e6	inactive
Tsc1 (GeneID 42862)	DRSC16890	59813	65200	5.10e5	5.47e5	inactive
Tsc1 (GeneID 42862)	DRSC27643	3.57e5	3.96e5	6.17e5	6.74e5	inactive
fred (GeneID 33613)	DRSC00349	3.05e5	2.20e5	1.12e6	9.33e5	inactive
fred (GeneID 33613)	DRSC00599	5.53e5	5.84e5	3.21e6	3.14e6	inactive
fred (GeneID 33613)	DRSC00601	1.15e5	83956	6.47e5	6.55e5	inactive
fred (GeneID 33613)	DRSC00602	1.53e5	76237	1.32e6	6.00e5	inactive
fred (GeneID 33613)	DRSC21906	6.12e5	7.15e5	1.41e6	1.51e6	inactive
CG6652 (GeneID 39905)	DRSC10686	32693	51084	5.06e5	4.67e5	inactive
CG6652 (GeneID 39905)	DRSC28835	6.10e5	5.45e5	1.55e6	1.44e6	inactive
CG10317 (GeneID 41987)	DRSC14229	2.26e5	2.03e5	2.56e6	2.32e6	inactive
CG32444 (GeneID 40406)	DRSC11677	59637	75616	3.35e5	3.71e5	inactive
C1GalTA (GeneID 34215)	DRSC03246	1.28e6	8.86e5	2.88e6	1.94e6	inactive
CG43317 (GeneID 41916)	DRSC15000	2.30e5	2.24e5	1.97e6	2.07e6	inactive
niki (GeneID 42959)	DRSC14285	2.60e5	3.39e5	3.03e6	2.90e6	inactive
niki (GeneID 42959)	DRSC36953					inactive
niki (GeneID 42959)	DRSC36954					inactive
RpL9 (GeneID 34526)	DRSC03418	1.61e5	1.95e5	1.20e6	9.22e5	inactive
uri (GeneID 37924)	DRSC04111	9.29e5	6.33e5	1.17e6	1.07e6	inactive
uri (GeneID 37924)	DRSC25077	7.41e5	1.22e6	1.09e6	1.19e6	inactive
ETH + asRNA:CR43257	DRSC04612	2.05e5	1.80e5	1.49e6	1.63e6	inactive
l(2)41Ab (GeneID 5740691)	DRSC21007	8.55e5	8.42e5	1.16e6	1.18e6	inactive
l(2)41Ab (GeneID 5740691)	DRSC37749	7.82e5	6.59e5	1.71e6	1.75e6	inactive
CG14797 + CG32809	DRSC18562	3.93e5	3.21e5	3.31e6	3.36e6	inactive
Ir94h (GeneID 42769)	DRSC15232	2.14e5	2.77e5	2.55e6	2.60e6	inactive
CG10274 (GeneID 38716)	DRSC09716	9.43e5	5.15e5	1.46e6	1.04e6	inactive
CG10274 (GeneID 38716)	DRSC24792	8.02e5	7.75e5	8.65e5	8.67e5	inactive
CG14763 (GeneID 35757)	DRSC06497	4.54e5	3.78e5	2.66e6	2.52e6	inactive
CG14763 (GeneID 35757)	DRSC25479	1.09e6	1.23e6	6.97e5	8.32e5	inactive
lncRNA:CR32690 (GeneID 10178944)	DRSC22219	6.21e5	5.27e5	1.97e6	1.66e6	inactive
lncRNA:CR32690 (GeneID 10178944)	DRSC27561	3.15e5	2.77e5	7.27e5	9.08e5	inactive
CG5104 (GeneID 40280)	DRSC11765	3.61e5	4.25e5	3.24e6	3.75e6	inactive
MBD-R2 (GeneID 41498)	DRSC14180	88577	1.30e5	1.80e6	2.16e6	inactive
aus (GeneID 42531)	DRSC13471	1.78e5	95552	63652	3.96e5	inactive
aus (GeneID 42531)	DRSC13473	3.39e5	2.40e5	15253	2.19e5	inactive
aus (GeneID 42531)	DRSC15157	16815	24515	4.44e5	4.09e5	inactive
aus (GeneID 42531)	DRSC26783	2.05e5	1.89e5	8.14e5	7.23e5	inactive
CG5746 (GeneID 42903)	DRSC15868	1.20e5	89149	6.59e5	6.86e5	inactive
CG5746 (GeneID 42903)	DRSC25452	5.07e5	6.14e5	8.06e5	8.37e5	inactive
CG5002 (GeneID 37025)	DRSC06911	5.08e5	3.40e5	5.88e5	4.92e5	inactive
CG15876 (GeneID 38573)	DRSC08484	1.21e5	1.27e5	1.97e6	2.23e6	inactive
CG15876 (GeneID 38573)	DRSC27697	1.89e5	2.23e5	3.95e5	6.14e5	inactive
fbl (GeneID 46234)	DRSC11886	4.54e5	2.47e5	3.38e6	2.73e6	inactive
fbl (GeneID 46234)	DRSC27922	4.74e5	4.07e5	1.33e6	1.36e6	inactive
fbl (GeneID 46234)	DRSC29115	7.29e5	1.02e6	1.42e6	1.28e6	inactive
Ranbp21 (GeneID 32970)	DRSC19447	64669	36163	4.00e5	3.32e5	inactive
RhoBTB (GeneID 40249)	DRSC11877	41294	53562	3.25e5	3.71e5	inactive
CG15014 (GeneID 38533)	DRSC08468	1.45e5	1.14e5	1.69e6	1.19e6	inactive
CG15014 (GeneID 38533)	DRSC27374	5.42e5	6.80e5	8.88e5	8.06e5	inactive
CG8539 (GeneID 38842)	DRSC10988	1.08e6	7.55e5	1.09e6	1.89e6	inactive
CG8539 (GeneID 38842)	DRSC21798	4.95e5	3.97e5	2.52e6	2.76e6	inactive
CG8539 (GeneID 38842)	DRSC28192	6.29e5	5.39e5	1.42e6	1.10e6	inactive
RhoGAP71E (GeneID 39693)	DRSC10232	59771	39523	4.31e5	2.87e5	inactive
RhoGAP71E (GeneID 39693)	DRSC10838	2.16e5	2.17e5	1.56e6	1.91e6	inactive
RhoGAP71E (GeneID 39693)	DRSC29082	4.64e5	4.24e5	1.38e6	1.21e6	inactive
CG18747 (GeneID 59143)	DRSC15384	1.05e5	1.09e5	2.52e6	1.95e6	inactive
CG18747 (GeneID 59143)	DRSC26205	2.80e5	2.78e5	4.78e5	4.74e5	inactive
Qsox3 (GeneID 42582)	DRSC16096	2.55e5	3.51e5	3.34e6	3.51e6	inactive
dan (GeneID 43023)	DRSC14406	75359	78680	2.79e5	3.08e5	inactive
dan (GeneID 43023)	DRSC29653	4.18e5	5.23e5	9.69e5	9.69e5	inactive

Just “Renilla control light, replicate 2” (9 entries from above):
lncRNA:CR32690 (GeneID 10178944) [DRSC22219]	1.66e6
lncRNA:CR32690 (GeneID 10178944) [DRSC27561]	9.08e5
CG5104 (GeneID 40280) [DRSC11765]	3.75e6
MBD-R2 (GeneID 41498) [DRSC14180]	2.16e6
aus (GeneID 42531) [DRSC13471]	3.96e5
aus (GeneID 42531) [DRSC13473]	2.19e5
aus (GeneID 42531) [DRSC15157]	4.09e5
aus (GeneID 42531) [DRSC26783]	7.23e5
CG5746 (GeneID 42903) [DRSC15868]	6.86e5
